The supplement of paper PMC10849652
This is one part of the list.

By UniProt entry, the sequences of proteins in these tests, tags left out. Where a name states a change or a piece, a line headed by the entry shows the natural chain unless it says otherwise.
UniProt P60903, whole entry, looked up: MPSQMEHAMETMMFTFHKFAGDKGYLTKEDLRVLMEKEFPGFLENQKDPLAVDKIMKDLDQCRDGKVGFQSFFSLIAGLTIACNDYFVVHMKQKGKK
UniProt O00560: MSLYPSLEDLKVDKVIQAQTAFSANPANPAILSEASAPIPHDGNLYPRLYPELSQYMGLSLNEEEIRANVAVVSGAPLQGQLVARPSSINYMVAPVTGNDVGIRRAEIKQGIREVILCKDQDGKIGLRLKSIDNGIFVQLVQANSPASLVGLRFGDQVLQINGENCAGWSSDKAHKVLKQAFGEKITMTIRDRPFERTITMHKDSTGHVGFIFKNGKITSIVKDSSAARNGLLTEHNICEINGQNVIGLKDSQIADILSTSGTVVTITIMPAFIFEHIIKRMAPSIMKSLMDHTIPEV
UniProt Q96T51: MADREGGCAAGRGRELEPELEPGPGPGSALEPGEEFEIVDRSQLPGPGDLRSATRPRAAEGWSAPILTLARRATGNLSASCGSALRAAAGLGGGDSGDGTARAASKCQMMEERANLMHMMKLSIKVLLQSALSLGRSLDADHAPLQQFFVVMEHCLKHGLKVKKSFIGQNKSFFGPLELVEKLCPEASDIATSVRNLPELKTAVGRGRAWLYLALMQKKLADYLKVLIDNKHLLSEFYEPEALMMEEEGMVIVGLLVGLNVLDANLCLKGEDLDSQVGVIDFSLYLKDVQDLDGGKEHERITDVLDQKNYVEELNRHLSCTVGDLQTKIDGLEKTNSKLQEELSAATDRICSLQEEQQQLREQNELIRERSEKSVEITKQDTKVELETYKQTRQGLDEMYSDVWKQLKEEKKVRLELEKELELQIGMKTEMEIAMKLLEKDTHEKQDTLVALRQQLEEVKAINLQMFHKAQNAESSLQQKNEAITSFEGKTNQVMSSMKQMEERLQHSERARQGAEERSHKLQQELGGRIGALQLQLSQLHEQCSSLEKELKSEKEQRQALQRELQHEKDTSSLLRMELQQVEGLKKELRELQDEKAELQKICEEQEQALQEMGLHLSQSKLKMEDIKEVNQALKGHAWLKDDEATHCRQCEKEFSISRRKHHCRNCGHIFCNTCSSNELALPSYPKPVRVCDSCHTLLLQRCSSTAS
UniProt Q9NTJ5: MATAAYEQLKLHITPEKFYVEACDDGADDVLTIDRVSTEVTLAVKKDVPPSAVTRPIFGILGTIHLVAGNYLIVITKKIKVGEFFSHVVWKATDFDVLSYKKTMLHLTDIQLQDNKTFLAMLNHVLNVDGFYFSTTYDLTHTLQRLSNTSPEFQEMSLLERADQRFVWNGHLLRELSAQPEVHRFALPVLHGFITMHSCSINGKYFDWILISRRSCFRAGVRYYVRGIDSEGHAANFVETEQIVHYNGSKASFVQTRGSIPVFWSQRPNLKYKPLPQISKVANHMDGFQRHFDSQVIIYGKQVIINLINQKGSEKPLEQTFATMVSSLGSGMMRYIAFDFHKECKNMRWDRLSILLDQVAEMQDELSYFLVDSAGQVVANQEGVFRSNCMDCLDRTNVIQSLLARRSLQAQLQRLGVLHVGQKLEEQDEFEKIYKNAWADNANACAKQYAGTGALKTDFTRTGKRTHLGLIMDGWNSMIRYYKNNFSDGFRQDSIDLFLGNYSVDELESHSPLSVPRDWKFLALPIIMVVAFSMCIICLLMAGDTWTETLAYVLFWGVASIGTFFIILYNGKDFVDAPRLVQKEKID
UniProt P26447: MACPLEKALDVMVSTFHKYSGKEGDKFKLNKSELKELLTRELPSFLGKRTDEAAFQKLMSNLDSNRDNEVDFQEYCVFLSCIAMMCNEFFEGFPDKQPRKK
UniProt O00767: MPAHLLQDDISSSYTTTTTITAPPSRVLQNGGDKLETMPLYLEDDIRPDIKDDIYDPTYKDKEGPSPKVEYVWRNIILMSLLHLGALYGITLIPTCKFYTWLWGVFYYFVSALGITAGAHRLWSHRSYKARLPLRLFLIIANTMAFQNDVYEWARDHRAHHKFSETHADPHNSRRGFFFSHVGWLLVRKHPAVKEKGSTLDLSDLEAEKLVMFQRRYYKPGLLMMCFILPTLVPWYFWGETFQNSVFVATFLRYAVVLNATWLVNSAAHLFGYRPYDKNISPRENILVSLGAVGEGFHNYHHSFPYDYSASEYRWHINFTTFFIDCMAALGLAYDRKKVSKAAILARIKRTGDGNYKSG
UniProt P29034: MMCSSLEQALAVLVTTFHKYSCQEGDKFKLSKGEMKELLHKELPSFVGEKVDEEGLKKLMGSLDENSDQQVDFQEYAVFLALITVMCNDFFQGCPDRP
UniProt O95486: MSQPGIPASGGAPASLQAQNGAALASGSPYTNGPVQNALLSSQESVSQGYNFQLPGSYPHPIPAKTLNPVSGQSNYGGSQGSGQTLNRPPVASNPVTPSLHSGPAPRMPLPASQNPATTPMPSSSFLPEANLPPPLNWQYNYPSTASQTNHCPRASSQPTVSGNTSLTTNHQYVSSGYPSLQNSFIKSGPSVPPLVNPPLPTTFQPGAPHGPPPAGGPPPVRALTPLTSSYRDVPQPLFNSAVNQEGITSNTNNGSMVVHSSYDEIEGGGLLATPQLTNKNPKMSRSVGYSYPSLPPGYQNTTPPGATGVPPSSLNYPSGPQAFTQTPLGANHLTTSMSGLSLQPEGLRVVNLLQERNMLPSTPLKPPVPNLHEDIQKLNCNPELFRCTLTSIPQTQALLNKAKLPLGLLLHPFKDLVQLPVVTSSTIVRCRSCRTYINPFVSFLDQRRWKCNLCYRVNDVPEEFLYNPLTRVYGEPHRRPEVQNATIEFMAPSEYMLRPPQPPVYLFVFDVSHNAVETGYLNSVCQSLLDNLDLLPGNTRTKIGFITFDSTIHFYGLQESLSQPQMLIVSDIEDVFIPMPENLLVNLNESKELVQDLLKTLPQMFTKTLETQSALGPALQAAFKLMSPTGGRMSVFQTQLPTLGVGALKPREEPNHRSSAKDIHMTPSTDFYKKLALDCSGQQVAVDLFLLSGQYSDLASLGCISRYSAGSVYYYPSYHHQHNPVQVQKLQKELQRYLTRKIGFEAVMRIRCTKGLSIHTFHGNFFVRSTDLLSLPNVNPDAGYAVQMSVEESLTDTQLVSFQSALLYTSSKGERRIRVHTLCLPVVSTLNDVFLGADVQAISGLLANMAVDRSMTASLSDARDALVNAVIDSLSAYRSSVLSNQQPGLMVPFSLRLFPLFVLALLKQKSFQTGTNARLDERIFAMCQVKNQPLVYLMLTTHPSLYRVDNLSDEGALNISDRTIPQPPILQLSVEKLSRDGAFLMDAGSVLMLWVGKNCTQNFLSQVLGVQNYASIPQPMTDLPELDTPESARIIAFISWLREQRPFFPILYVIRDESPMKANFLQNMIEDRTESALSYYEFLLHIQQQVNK
UniProt Q8IZE3: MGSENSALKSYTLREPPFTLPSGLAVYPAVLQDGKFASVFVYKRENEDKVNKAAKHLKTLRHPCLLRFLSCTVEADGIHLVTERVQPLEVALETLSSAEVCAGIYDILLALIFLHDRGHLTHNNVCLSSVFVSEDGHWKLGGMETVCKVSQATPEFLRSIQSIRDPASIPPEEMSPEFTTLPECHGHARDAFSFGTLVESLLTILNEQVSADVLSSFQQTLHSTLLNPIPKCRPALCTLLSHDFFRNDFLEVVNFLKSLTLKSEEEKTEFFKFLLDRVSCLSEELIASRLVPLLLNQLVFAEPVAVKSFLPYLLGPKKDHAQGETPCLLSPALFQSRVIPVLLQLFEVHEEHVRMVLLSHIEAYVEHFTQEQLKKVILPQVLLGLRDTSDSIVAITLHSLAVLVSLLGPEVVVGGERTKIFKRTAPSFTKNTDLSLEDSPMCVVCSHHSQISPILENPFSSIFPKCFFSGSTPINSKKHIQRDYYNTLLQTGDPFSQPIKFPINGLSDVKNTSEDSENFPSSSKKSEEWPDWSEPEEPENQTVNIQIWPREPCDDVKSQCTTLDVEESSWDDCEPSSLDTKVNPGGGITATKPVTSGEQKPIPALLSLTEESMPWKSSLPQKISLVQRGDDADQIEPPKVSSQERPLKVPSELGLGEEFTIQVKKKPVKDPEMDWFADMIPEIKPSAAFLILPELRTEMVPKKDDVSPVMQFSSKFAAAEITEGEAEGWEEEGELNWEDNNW
UniProt O94979: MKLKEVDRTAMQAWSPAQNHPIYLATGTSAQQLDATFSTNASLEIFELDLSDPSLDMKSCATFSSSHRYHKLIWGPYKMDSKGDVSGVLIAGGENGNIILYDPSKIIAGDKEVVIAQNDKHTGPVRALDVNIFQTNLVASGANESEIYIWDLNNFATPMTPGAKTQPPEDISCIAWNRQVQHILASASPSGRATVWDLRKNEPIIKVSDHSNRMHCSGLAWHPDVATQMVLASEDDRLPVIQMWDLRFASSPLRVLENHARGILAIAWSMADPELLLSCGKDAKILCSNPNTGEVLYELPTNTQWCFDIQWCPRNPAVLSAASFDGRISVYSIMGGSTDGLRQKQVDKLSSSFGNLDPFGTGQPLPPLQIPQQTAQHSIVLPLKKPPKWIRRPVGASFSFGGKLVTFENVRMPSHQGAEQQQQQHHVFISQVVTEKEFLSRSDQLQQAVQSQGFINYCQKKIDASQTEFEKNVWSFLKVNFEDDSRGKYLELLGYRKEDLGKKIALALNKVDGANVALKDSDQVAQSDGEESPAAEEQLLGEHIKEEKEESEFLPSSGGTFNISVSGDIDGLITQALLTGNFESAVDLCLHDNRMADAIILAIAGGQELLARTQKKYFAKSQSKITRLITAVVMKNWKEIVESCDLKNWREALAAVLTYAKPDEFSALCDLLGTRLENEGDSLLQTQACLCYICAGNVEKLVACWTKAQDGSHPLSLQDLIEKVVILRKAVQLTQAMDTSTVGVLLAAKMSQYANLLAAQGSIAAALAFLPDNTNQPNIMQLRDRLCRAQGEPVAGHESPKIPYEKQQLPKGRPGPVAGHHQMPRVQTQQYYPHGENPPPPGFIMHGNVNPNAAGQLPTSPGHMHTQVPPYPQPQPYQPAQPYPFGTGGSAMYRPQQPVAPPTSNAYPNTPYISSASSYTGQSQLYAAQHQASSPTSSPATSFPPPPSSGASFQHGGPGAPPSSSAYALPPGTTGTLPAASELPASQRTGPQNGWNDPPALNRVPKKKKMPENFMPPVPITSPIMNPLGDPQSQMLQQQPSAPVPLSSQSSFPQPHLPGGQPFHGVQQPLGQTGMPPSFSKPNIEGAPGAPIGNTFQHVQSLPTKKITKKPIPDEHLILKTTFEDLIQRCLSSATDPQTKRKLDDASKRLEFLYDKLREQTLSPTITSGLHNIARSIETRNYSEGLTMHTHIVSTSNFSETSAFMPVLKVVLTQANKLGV
UniProt Q9UPN6: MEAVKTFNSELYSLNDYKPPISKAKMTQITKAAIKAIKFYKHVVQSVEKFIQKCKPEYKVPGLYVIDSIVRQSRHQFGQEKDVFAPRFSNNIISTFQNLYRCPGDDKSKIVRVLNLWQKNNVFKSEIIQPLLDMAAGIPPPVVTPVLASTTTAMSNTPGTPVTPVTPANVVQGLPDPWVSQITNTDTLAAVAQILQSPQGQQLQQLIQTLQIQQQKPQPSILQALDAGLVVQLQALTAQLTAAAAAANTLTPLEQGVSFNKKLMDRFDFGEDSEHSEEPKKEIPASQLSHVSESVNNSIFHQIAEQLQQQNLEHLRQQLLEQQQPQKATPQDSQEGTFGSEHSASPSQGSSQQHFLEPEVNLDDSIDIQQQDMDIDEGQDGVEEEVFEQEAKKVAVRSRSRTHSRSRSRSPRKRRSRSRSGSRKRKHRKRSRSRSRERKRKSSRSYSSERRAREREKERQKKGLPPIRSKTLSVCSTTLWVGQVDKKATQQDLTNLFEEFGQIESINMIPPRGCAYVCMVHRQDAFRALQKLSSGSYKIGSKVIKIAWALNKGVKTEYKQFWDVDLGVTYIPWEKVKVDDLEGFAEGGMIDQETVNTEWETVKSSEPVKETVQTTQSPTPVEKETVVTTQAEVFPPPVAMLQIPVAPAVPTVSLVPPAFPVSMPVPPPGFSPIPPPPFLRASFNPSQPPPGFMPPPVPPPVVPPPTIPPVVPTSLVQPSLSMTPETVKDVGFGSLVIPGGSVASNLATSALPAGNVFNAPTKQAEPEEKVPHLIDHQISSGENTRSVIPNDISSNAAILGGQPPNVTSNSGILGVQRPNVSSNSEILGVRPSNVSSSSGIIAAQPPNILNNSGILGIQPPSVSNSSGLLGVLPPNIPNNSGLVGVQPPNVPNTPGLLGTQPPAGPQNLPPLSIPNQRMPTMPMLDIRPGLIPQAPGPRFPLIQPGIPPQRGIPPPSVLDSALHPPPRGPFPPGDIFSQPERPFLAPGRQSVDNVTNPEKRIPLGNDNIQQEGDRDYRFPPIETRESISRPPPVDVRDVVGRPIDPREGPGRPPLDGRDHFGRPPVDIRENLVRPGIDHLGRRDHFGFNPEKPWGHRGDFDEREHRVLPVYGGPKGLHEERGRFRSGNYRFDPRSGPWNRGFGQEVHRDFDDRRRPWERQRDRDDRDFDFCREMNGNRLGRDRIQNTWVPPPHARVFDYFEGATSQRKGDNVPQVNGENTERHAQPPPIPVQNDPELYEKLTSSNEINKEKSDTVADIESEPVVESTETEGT

The targets below were run with CC[C@H](C)N1C=C(C2=C(C=C(C=C21)C3=CN=C(C=C3)N4CCNCC4)C(=O)NCC5=C(C=C(NC5=O)C)C)C (assay: log2 fold change, soluble protein after heating vs DMSO (PISA); higher = thermal stabilisation; K562 cells, 10 uM, 30 min; active = over 0.2 and 3.5 SD of the protein, either way, in both replicates (recomputed)).
Outline: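 Soluble protein was defined as the supernatant after 21,000xg for 90 min. It came from K562 cells at 2×10^6 cells/mL given 10 μM compound for 30 min, heated in aliquots for 3 min across 48°C-58°C, pooled, and extracted in PBS with 0.5% NP-40 at 4°C, and was quantified by TMTpro 16plex LC-MS/MS with equalised channel sums. Thermal stability against control samples, from duplicates, is reported as log2 fold change.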

| Target | log2 fold change |
| --- | --- |
| S100A10 (UniProt P60903) | inactive: 0.145 |
| SAAL1 (UniProt Q96ER3) | inactive: 0.001 |
| SDCBP isoform 2 (UniProt O00560) | inactive: -0.021 |
| RUFY1 (UniProt Q96T51) | inactive: 0.07 |
| RUNX1 isoform 8 (UniProt Q01196) | inactive: 0.086 |
| SACM1L (UniProt Q9NTJ5) | inactive: -0.001 |
| S100A4 (UniProt P26447) | inactive: 0.176 |
| SART3, A0A499FI31 | inactive: 0.061 |
| SCD (UniProt O00767) | inactive: -0.063 |
| SDHAF2 (UniProt Q9NX18) | inactive: -0.081 |
| SCAMP2 (UniProt O15127) | inactive: -0.01 |
| SAMSN1 isoform 3 (UniProt Q9NSI8) | inactive: 0.026 |
| S100A2 (UniProt P29034) | inactive: 0.596 |
| SEC24A (UniProt O95486) | inactive: 0.018 |
| SCYL3 isoform 2 (UniProt Q8IZE3) | inactive: 0.047 |
| RRP36 (UniProt Q96EU6) | inactive: -0.028 |
| SCPEP1 (UniProt Q9HB40) | inactive: -0.022 |
| SEC31A (UniProt O94979) | inactive: 0.021 |
| SCAMP2 (UniProt H3BUB6) | inactive: -0.092 |
| SEC16A isoform 5 (UniProt O15027) | inactive: 0.051 |
| SCAF8 isoform 2 (UniProt Q9UPN6) | inactive: 0.037 |
| RUFY3 isoform 3 (UniProt Q7L099) | inactive: -0.071 |

A run of entries from further up, as a working copy:

| Target | log2 fold change |
| --- | --- |
| RUNX1 isoform 8 (UniProt Q01196) | inactive: 0.086 |
| SACM1L (UniProt Q9NTJ5) | inactive: -0.001 |
